Laboratory results as given in PubChem BioAssay (NCATS).
Inconclusive means that the source gave no clear call. Such entries were picked first, then a sample of the others. Where the call is inconclusive, the potency comes from a doubtful curve fit. The source made the active and inactive calls. Calls follow the shape of the dose curve; as a rule, active = well fitted cell-killing curve with a large enough effect; inconclusive = small, poorly fitted or top-dose-only effect, or effect the other way; inactive = no such curve, though single readings can be large or run the other way.

Assay: Quantitative High-Throughput drug screen in 47 multiple myeloma cell lines against the NCATS MIPE library collection: KMS28PE_JCRB cell viability assay (AID 1918983); also: nearly all actives have a fitted effect of over 35% in size
Conditions: KMS28PE multiple myeloma viability, CellTiter-Glo ATP, 48 h; series mostly up to 45.8 µM
In short: (§1)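 ATP-based CellTiter-Glo luminescence after 48 h drug exposure (37 °C, 5% CO2) of 500 myeloma cells per well. DMSO-only wells set 100% viability, media-only wells 0%; MIPE 4.0 library added by pin tool.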
Potency is read from the fitted curve at half-maximal effect.

| Compound | Potency |
| --- | --- |
| CC(c1cc2ccccc2s1)N(O)C(N)=O (configuration not stated) | inactive |
| CC(NCCc1ccc(O)cc1)C(O)c1ccc(O)cc1 (configuration not stated) | inconclusive: 5.9 µM [cytotoxic, partial curve, poor fit] |
| Cn1c(=O)c2c(ncn2CC(O)CO)n(C)c1=O (configuration not stated) | inactive |
| N[C@@H](Cc1ccc(O)c(O)c1)C(=O)O | inconclusive: 33.2 µM [cytotoxic, single point] |
| Cn1cc(-c2ccncc2)c(-c2ccc(OCc3ccc4ccccc4n3)cc2)n1 | inconclusive: 14.8 µM [cytotoxic, partial curve] |

Assay: Quantitative High-Throughput drug screen in 47 multiple myeloma cell lines against the NCATS MIPE library collection: L363_DSMZ cell viability assay (AID 1918984); also: nearly all actives have a fitted effect of over 40% in size
Conditions: L363 myeloma viability, CellTiter-Glo ATP luminescence, 48 h; viability (% of control): at 45.8 µM (top of the series)
In short: as §1

| Compound | Potency | viability (% of control) |
| --- | --- | --- |
| CC(C)C[C@H](NC(=O)c1cc2ccccc2s1)C(=O)N1CCN(C(=O)[C@H](CO)NS(=O)(=O)c2ccc(Cl)cc2Cl)CC1 | inconclusive: 11.8 µM [cytotoxic, single point] | – |
| Cc1oc(=O)oc1CN1CCN(c2cc3c(cc2F)c(=O)c(C(=O)O)c2n3C(C)S2)CC1 (configuration not stated) | inconclusive: 37.2 µM [cytotoxic, single point] | – |
| NCc1c[nH]c(=S)n1[C@H]1CCc2c(F)cc(F)cc2C1 | inconclusive: 20.9 µM [cytotoxic, partial curve, poor fit] | – |
| COc1ccc2c(c1)CC[C@@H](CN(C)CC(=O)O)[C@H]2c1ccccc1 | active: 1.66 µM | – |
| COc1cc(CNC(=O)CCCCC=CC(C)C)ccc1O | inconclusive: 0.0743 µM [cytotoxic, full curve, poor fit] | – |
| Nc1cccc(S(=O)(=O)N2CCCN(S(=O)(=O)c3ccc4c(c3)OCCO4)CC2)c1 | inconclusive: 0.0047 µM [rising, full curve, poor fit] | – |
| CCn1c(-c2nonc2N)nc2c(C#CC(C)(C)O)ncc(OC[C@H]3CCCNC3)c21 | inconclusive: 0.0066 µM [cytotoxic, full curve] | – |
| COc1cc2c(c(OC)c1OC)-c1ccc(OC)c(=O)cc1[C@@H](NC(C)=O)CC2 | inactive | – |
| Oc1ccc([C@@H]2Oc3ccc(O)cc3[C@@H]3CCC[C@@H]32)cc1 | inactive | – |
| N#CC(=C(N)Sc1ccc(N)cc1)c1ccccc1C(F)(F)F | inconclusive: 0.0132 µM [cytotoxic, full curve, poor fit] | – |
| CCC(=O)N1CCN(c2ccc(-n3c(=O)ccc4cnc5ccc(-c6cnc7ccccc7c6)cc5c43)cc2C(F)(F)F)CC1 | inactive | – |
| CCn1c(=O)c2c(nc(C=Cc3ccc(OC)c(OC)c3)n2C)n(CC)c1=O | inconclusive: 37.2 µM [cytotoxic, single point] | – |
| CCNC(=O)Nc1ccc(Oc2ncnc(N)c2C=NOC)cc1Cl | inconclusive: 2.96 µM [cytotoxic, full curve, poor fit] | – |
| CC(C)(O)CCc1ccc(OCc2cc(-c3cccc(OC(F)F)c3)c3ncccc3c2)cc1 | inactive | – |
| N#CC(c1ccc(Cl)cc1)c1c(Cl)cc(-n2ncc(=O)[nH]c2=O)cc1Cl (configuration not stated) | active: 16.6 µM | – |
| Cc1ccc2c(=O)c3cccc(CC(=O)O)c3oc2c1C | inconclusive: 0.132 µM [cytotoxic, full curve, poor fit] | – |
| CN(C)CCN(Cc1ccc(Cl)cc1)c1ccccn1 | inactive | – |
| COc1ccc2[nH]cc(CCNC(C)=O)c2c1 | inconclusive: 0.0118 µM [rising, full curve, poor fit] | – |
| CN1c2ccccc2C(=O)N2CCc3c([nH]c4ccccc34)C21 (configuration not stated) | inconclusive: 0.0187 µM [cytotoxic, full curve, poor fit] | – |

Quoted at random: 2 compounds from above.

| Compound | Potency | viability (% of control) |
| --- | --- | --- |
| Cc1oc(=O)oc1CN1CCN(c2cc3c(cc2F)c(=O)c(C(=O)O)c2n3C(C)S2)CC1 (configuration not stated) | inconclusive: 37.2 µM [cytotoxic, single point] | – |
| CCn1c(-c2nonc2N)nc2c(C#CC(C)(C)O)ncc(OC[C@H]3CCCNC3)c21 | inconclusive: 0.0066 µM [cytotoxic, full curve] | – |

More records:

| Compound | Potency | viability (% of control) |
| --- | --- | --- |
| CC(=O)N1CCN(c2ccc(OC[C@H]3CO[C@](Cn4ccnc4)(c4ccc(Cl)cc4Cl)O3)cc2)CC1 | inactive | – |
| CCN(C)C(=O)Oc1cccc([C@H](C)N(C)C)c1 | inconclusive: 8.33 µM [cytotoxic, full curve, poor fit] | – |
| CCN(CCO)CCCOc1ccc2c(Nc3cc(CC(=O)Nc4cccc(F)c4)[nH]n3)ncnc2c1 | inactive | – |
| N#CC(=C(O)c1ccc(Cl)cc1Cl)c1nc2cc(Cl)ccc2c(=O)[nH]1 | inactive | – |
| CCCCOCCOc1nc(-c2ccc(C(=O)O)c(F)c2)sc1C | inactive | – |
| CC(C)(Oc1ccc(C2CC2(Cl)Cl)cc1)C(=O)O (configuration not stated) | inconclusive: 0.0024 µM [cytotoxic, full curve, poor fit] | – |
| CNC(=O)c1cc(Oc2ccc(NC(=O)Nc3ccc(Cl)c(C(F)(F)F)c3)cc2)ccn1 | active: 6.62 µM | – |
| CC(c1cc2ccccc2s1)N(O)C(N)=O (configuration not stated) | inconclusive: 0.0037 µM [cytotoxic, full curve, poor fit] | – |
| CN1CCC[C@H]1CCO[C@](C)(c1ccccc1)c1ccc(Cl)cc1 | – | inconclusive: 37.4% [cytotoxic] |
| C=CCn1c(=O)c2cnc(Nc3ccc(N4CCN(C)CC4)cc3)nc2n1-c1cccc(C(C)(C)O)n1 | active: 0.0833 µM | – |
| CC(NCCc1ccc(O)cc1)C(O)c1ccc(O)cc1 (configuration not stated) | inactive | – |
| Cn1c(=O)c2c(ncn2CC(O)CO)n(C)c1=O (configuration not stated) | active: 5.26 µM | – |
| N[C@@H](Cc1ccc(O)c(O)c1)C(=O)O | inconclusive: 18.7 µM [cytotoxic, partial curve, poor fit] | – |
| CC(C)(C)OC(=O)Nc1ccc(-c2cc(C(=O)NCCCCCCC(=O)NO)no2)cc1 | active: 0.469 µM | – |
| CON=C(C(=O)N[C@@H]1C(=O)N2C(C(=O)O)=C(Cn3ccc(=N)n3CCO)CS[C@H]12)c1csc(N)n1 | inactive | – |
| O=C(O)CCc1ccc(NCc2cccc(Oc3ccccc3)c2)cc1 | inactive | – |
| COc1cccc(Nc2c(C(N)=O)cnc3c(C)cc(S(=O)(=O)c4cccc(C(=O)N(C)C)c4)cc23)c1 | inconclusive: 0.0229 µM [cytotoxic, full curve, poor fit] | – |
| COc1ccc2c(c1OC)C(=O)OC2[C@H]1c2c(cc3c(c2OC)OCO3)CCN1C (some centres not stated) | active: 0.0743 µM | – |
